Source: PubChem BioAssay AID662 (National Center for Advancing Translational Sciences (NCATS), 2007)
The list shows a part of the results. The main result of the screen is listed elsewhere. These columns were measured beside it and carry no call. Compounds called inactive in the main read-out are mostly missing here. The note in brackets gives the kind of curve behind each potency; many fits are weak.

Assay: Cell signaling CRE-BLA (Fsk stim)
Conditions: CHO CRE-bla reporter (cAMP response element driving beta-lactamase), forskolin EC10, beta-lactamase ratio; measured here: 460 nm blue channel
In short: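 AC50 values, positive or negative, reflect shifts in EC10 NKH 477-induced CRE-bla reporter activity in CHO cells. Incubation lasted 3 h at 37 °C before CCF4 substrate (2 h, room temperature) and ratiometric 460/530 nm reading.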

| Compound | AC50 |
| --- | --- |
| Cc1nc2sc(C)c(C)c2c(=O)[nH]1 | 12.6 µM [rising, partial curve] |
| Cn1c(=O)c2c(nc(NCc3ccccc3)n2Cc2ccc(F)cc2)n(C)c1=O | 3.16 µM [rising, partial curve] |
| O=C(OCc1c(Cl)cccc1Cl)c1ccccn1 | 5.01 µM [falling, single point] |
| COC(=O)COc1ccc(C(=O)OC)cc1 | 5.01 µM [rising, single point] |
| Cn1c(SC2=CS(=O)(=O)c3ccccc32)nc2ccccc21 | 5.01 µM [falling, full curve] |
| Cn1c(C(=O)NCC2CCCO2)cc2c(=O)n(C)c3ccccc3c21 (configuration not stated) | 3.98 µM [rising, full curve] |
| Cc1cc2ccccc2c(=O)n1CC(=O)NCC(=O)N1CCN(c2ccccc2)CC1 | 0.02 µM [falling, full curve] |
| COc1ccccc1CNC(=O)c1cnc2ccccn2c1=O | 12.6 µM [rising, partial curve] |
| CC1=C(C(=O)Nc2cc(C)ccn2)C(c2ccc(C)cc2)C2=C(CCCC2=O)N1 (configuration not stated) | 12.6 µM [rising, single point] |
| COc1ccc(Cc2nn3c(-c4cc(OC)c(OC)c(OC)c4)nnc3s2)cc1 | 5.01 µM [rising, partial curve] |
| C=CCn1c(Cc2cccs2)nnc1SCC(=O)Nc1cccc(OC)c1 | 25.1 µM [rising, single point] |
| Cc1cc(-n2c(=O)c(C#N)cc3c(=O)n4ccccc4nc32)no1 | 7.94 µM [rising, partial curve] |
| COc1ccccc1CNc1ncnc2ccc(-c3cccnc3)cc12 | 2.51 µM [rising, full curve] |
| CCOC(=O)c1c(NC(=O)C(F)(OC)C(F)(F)F)sc(C(=O)N2CCCCC2)c1C (configuration not stated) | 10 µM [rising, partial curve] |
| COc1ccc(-c2nn3c(-c4cccc(C)c4)nnc3s2)cc1OC | 5.01 µM [rising, partial curve] |
| CC1CCN(c2oc(-c3ccccc3F)nc2C#N)CC1 | 3.98 µM [rising, full curve] |
| COc1ccc(N2CCN(C(=O)CSc3ccccc3)CC2)cc1 | 0.398 µM [falling, partial curve] |
| Cc1cc2oc(=O)cc(CN3CCCCC3)c2cc1C(C)C | 2.51 µM [rising, single point] |
| O=C(Nc1ccc(N2CCCC2)c(Cl)c1)c1ccco1 | 0.631 µM [rising, single point] |
| O=C(NC(C(=O)c1ccccc1)N1CCOCC1)c1cccs1 (configuration not stated) | 0.1 µM [falling, full curve] |
| CCOC(=O)C1CCCn2c1nc1sc3c(c1c2=O)CCCC3 (configuration not stated) | 25.1 µM [rising, single point] |
| Cc1cccc(NCc2ccccc2O)c1 | 0.398 µM [falling, partial curve] |
| CN(C)c1nc(N)nc(CSc2nc3cc(Cl)ccc3o2)n1 | 2.51 µM [rising, full curve] |

| Compound | AC50 |
| --- | --- |
| O=C(c1cccc(F)c1)N1CCN(S(=O)(=O)c2ccccc2)CC1 | 12.6 µM [rising, single point] |
| Cc1nc2cnc(N3CCOCC3)nc2n(CCC#N)c1=O | 25.1 µM [rising, single point] |
| O=C(O)/C=C1\CCCc2ccccc2[C@H]1O | 31.6 µM [falling, single point] |
| CC(=O)N1[C@H](C)C=C[C@]1(Cc1ccccc1)C(=O)NCc1ccc(C)o1 | 12.6 µM [falling, single point] |
| COc1ccc(OC)c(CNc2nc3ccccc3n2CCN2CCCCC2)c1 | 3.16 µM [falling, partial curve] |
| CC(C)(C)NC[C@H](O)COc1cccc2[nH]c(=O)[nH]c12 | 31.6 µM [falling, single point] |
| Cn1c(=O)c(-c2ccc(F)cc2)nc2cncnc21 | 12.6 µM [rising, single point] |
| CC(NC(=O)c1ccc(F)cc1)C(c1cccs1)N1CCN(C)CC1 (configuration not stated) | 1 µM [rising, partial curve] |
| CNc1nnc(CSc2nc3ccccc3s2)s1 | 12.6 µM [rising, single point] |
| CC1CCN(c2nc3ccccc3nc2C(C#N)C(=O)OC2CCCCC2)CC1 (configuration not stated) | 12.6 µM [rising, single point] |
| CC(C)CCn1c(N)c(S(=O)(=O)c2cccs2)c2nc3ccccc3nc21 | 10 µM [rising, partial curve] |
| CC(=O)Nc1ccc(-c2cn3cccnc3n2)cc1 | 0.0794 µM [falling, full curve] |
| Cc1ccsc1C(=O)OCC(=O)NCC1CCCO1 (configuration not stated) | 3.98 µM [falling, single point] |
| N=C(N)c1ccc(-c2ccc(-c3ccc(C(=N)N)cc3)o2)cc1 | 1.58 µM [rising, partial curve, poor fit] |
| Cc1cc(Nc2nnnn2-c2ccccc2)n(-c2ccc(Cl)cc2)n1 | 3.16 µM [falling, full curve] |
| COC(=O)[C@@]1(Cc2ccccc2)[C@H]2c3cc(C(=O)N(C)C)n(Cc4ccc(OC)c(OC)c4)c3C[C@H]2CN1C(=O)c1ccccc1 | 2 µM [rising, full curve] |
| CN1CCN(c2ncc3nc(-c4cn(C)c5ccccc45)c(=O)n(C)c3n2)CC1 | 10 µM [rising, partial curve] |
| Cn1c(=N)n(CC(=O)C(C)(C)C)c2ccccc21 | 10 µM [rising, partial curve] |
| CCCOc1ccc2oc(=O)c3c(c2c1)CCCN3C(=O)CN1CCN(C(=O)c2ccco2)CC1 | 12.6 µM [rising, single point] |
| COc1cc(C2CC(=O)N3CN(Cc4ccco4)CSC3=C2C#N)ccc1OCc1ccccc1 (configuration not stated) | 12.6 µM [falling, partial curve] |
| O=C(Cc1cccs1)N1CCCC(c2nc3c(nnn3Cc3ccccc3Cl)c(=O)[nH]2)C1 (configuration not stated) | 20 µM [rising, single point] |
| CCOC(=O)c1c(NC(=O)COC)sc2c1CCCC2 | 15.8 µM [rising, single point] |
| Cc1cccc(NC(=O)c2ccccc2O)c1C | 2.51 µM [rising, partial curve, poor fit] |

| Compound | AC50 |
| --- | --- |
| O=C(NCc1ccco1)C1Cc2ccccc2CN1S(=O)(=O)c1ccccc1F (configuration not stated) | 5.01 µM [falling, partial curve] |
| Cn1c(=O)c2c(nc(NCCc3ccccc3)n2Cc2ccccc2)n(C)c1=O | 15.8 µM [falling, partial curve, poor fit] |
| CCCS(=O)(=O)NCCc1cc2cc(C)c(C)cc2[nH]c1=O | 3.98 µM [falling, single point] |
| COc1ncc2nc(-c3ccc(Cl)cc3)c(=O)n(CCc3ccccc3)c2n1 | 20 µM [rising, single point] |
| O=C(O)CCC(=O)Nc1ccc2c(c1)oc1ccccc12 | 12.6 µM [rising, single point] |
| COc1ccc(NS(=O)(=O)c2cc(C(=O)O)ccc2C)cc1 | 5.01 µM [falling, single point] |
| O=C1Nc2ccccc2SC(c2ccccc2)C1O (configuration not stated) | 25.1 µM [falling, single point] |
| CCOC(=O)c1[nH]c(C)c(C(=O)OCCN2C(=O)c3ccccc3C2=O)c1C | 1.58 µM [rising, full curve, poor fit] |
| COc1ccc(NC(=O)c2cccs2)cc1OC | 10 µM [rising, single point] |
| COc1ccc(Br)cc1C(=O)NCc1cccnc1 | 5.01 µM [rising, partial curve] |
| CCN(CC)C(=O)CSc1nc2cccnc2n1-c1ccccc1OC | 12.6 µM [rising, partial curve, poor fit] |
| CC1CCc2c(sc3ncnc(SCC(=O)N4CCN(C(=O)c5ccco5)CC4)c23)C1 (configuration not stated) | 25.1 µM [falling, single point] |
| COc1cc2c(cc1NC(=O)COC(=O)Cn1cnc3ccccc31)oc1ccccc12 | 3.98 µM [falling, partial curve] |
| Cc1cc(C)n(CC(O)CN2C(=O)NC(C)(C)C2=O)n1 (configuration not stated) | 3.98 µM [falling, single point] |
| COC(=O)[C@@]1(Cc2ccc(F)cc2)[C@H]2c3cc(C(=O)N(C)C)n(Cc4ccc(C(F)(F)F)nc4)c3C[C@H]2CN1C(=O)c1ccccc1 | 15.8 µM [rising, partial curve, poor fit] |
| O=C(CCCCn1c(=O)[nH]c2ccccc2c1=O)N1CCN(c2cccc(C(F)(F)F)c2)CC1 | 31.6 µM [falling, partial curve, poor fit] |
| CCc1c(C)sc(NC(=O)c2cccs2)c1C(=O)OC(C)C | 2.51 µM [rising, full curve] |
| CC[C@H](C(=O)[C@H](C)[C@H](O)[C@H](C)CCc1ccc(C)c(O)c1C(=O)O)[C@H]1O[C@](CC)([C@@H]2CC[C@@](O)(CC)[C@H](C)O2)C[C@H]1C | 3.16 µM [falling, partial curve] |
| CCCCC(OC(=O)c1cc2occc2n1C)C(=O)NCC1CCCO1 (configuration not stated) | 0.00794 µM [falling, full curve, poor fit] |
| COc1ccc(S(=O)(=O)N2CCc3ccccc32)cc1C(=O)OCc1c(C)noc1C | 3.16 µM [rising, full curve] |
| CN1[C@@H]2CC[C@H]1CC(OC(=O)[C@@H](CO)c1ccccc1)C2 (some centres not stated) | 31.6 µM [falling, single point] |

2 entries drawn at random from the list so far:

| Compound | AC50 |
| --- | --- |
| CCOC(=O)c1[nH]c(C)c(C(=O)OCCN2C(=O)c3ccccc3C2=O)c1C | 1.58 µM [rising, full curve, poor fit] |
| Cc1cc(C)n(CC(O)CN2C(=O)NC(C)(C)C2=O)n1 (configuration not stated) | 3.98 µM [falling, single point] |

Compounds from the list above with a CF3 group, in the order listed:

| Compound | AC50 |
| --- | --- |
| CCOC(=O)c1c(NC(=O)C(F)(OC)C(F)(F)F)sc(C(=O)N2CCCCC2)c1C (configuration not stated) | 10 µM [rising, partial curve] |
| COC(=O)[C@@]1(Cc2ccc(F)cc2)[C@H]2c3cc(C(=O)N(C)C)n(Cc4ccc(C(F)(F)F)nc4)c3C[C@H]2CN1C(=O)c1ccccc1 | 15.8 µM [rising, partial curve, poor fit] |
| O=C(CCCCn1c(=O)[nH]c2ccccc2c1=O)N1CCN(c2cccc(C(F)(F)F)c2)CC1 | 31.6 µM [falling, partial curve, poor fit] |
